The results in this text go back to patent US20090076278A1, “METHINE DYES AND USES OF THE SAME” (KABUSHIKI KAISHA HAYASHIBARA SEIBUTSU KAGAKU KENKYUJO, priority 2006, published 2009).

This data set in a line: Electric property of optical recording medium (DDU-1000 optical disk evaluation apparatus). The settings on record: 658 nm. Here is the method: According to conventional manner, an optical recording medium was prepared by successively multi-layering substrate 1, recording layer 2, reflection layer 3, and protection layer 4 in this order, as shown in FIG. 3. Any one of the methine dyes represented by Chemical Formulae 1 to 3, 8 and 36 in an adequate amount of TFP to give a concentration of 1.6% by weight, and the mixture was heated for awhile, and energized with ultrasonic for dissolution. According to conventional manner, the resulting solution was homogeneously coated over either side of polycarbonate disk substrate 1 (12 cm in diameter, 0.6 mm in thickness) in a rotatory manner and dried to form recording layer 2, made of absorption material, 100 nm in thickness. Thereafter, silver was evaporated unto substrate 1 up to give a layer with 30 to 100 nm in thickness and to form reflection layer 3 to be closely attached to recording layer 2, which was then closely adhered to polycarbonate disk protection layer 4 (12 cm in diameter, 0.6 mm in thickness) to form an optical recording medium for testing. In parallel, except for using the conventionally known methine dye represented by Chemical Formula 65 or 68 in place of the methine dye of the present invention, an optical recording medium as a control was prepared similarly as in the above.
Using “DDU-1000 MODEL”, a commercialized optical disk evaluation apparatus, produced by Pulstech Industries Co., Ltd., Shizuoka, Japan, the seven types of optical recording media were measured for recording sensitivity and electric property (reproduction light power of 0.7 mW) when recorded with test signals of modified 8-16 at a recording light wavelength of 658 nm (NA 0.60) and in data transmission rates of 11.08 Mbps (1× write drive), 44.32 Mbps (4× write drive), and 88.64 Mbps (8× write drive). The results are in Table 3 in parallel.

As to `CCN1C(=CC=CC2=[N+](CC)c3ccc4ccccc4c3C2(C)CCCCC2(C)C(C=CC=C3N(CC)c4ccc5ccccc5c4C3(C)Cc3ccccc3)=[N+](CC)c3ccc4ccccc4c32)C(C)(Cc2ccccc2)c2c1ccc1ccccc21.F[P-](F)(F)(F)(F)F.F[P-](F)(F)(F)(F)F` (stereo not drawn) [Chemical Formula 2], where the note is “1 × write drive (11.08 Mbps)”, the “14TM: 14TM Signal modulation rate” value is on record as 0.69, the “Jitter: Jitter value” is given as 7.4 ns, the “PO: Recording power” value is 8.5 mW and the “Ref.: Reflection percentage” value amounted to 65%. For the setting “4 × write drive (44.32 Mbps)”, the “14TM: 14TM Signal modulation rate” value is recorded as 0.70, the “Jitter: Jitter value” worked out at 7.5 ns, the “PO: Recording power” value was 14.5 mW and the “Ref.: Reflection percentage” value worked out at 66%. Also, for the setting “8 × write drive (88.64 Mbps)”, the “14TM: 14TM Signal modulation rate” value is listed as 0.71, the “Jitter: Jitter value” was 7.2 ns, the “PO: Recording power” value was determined as 23.5 mW and the “Ref.: Reflection percentage” value was 66%.
`CCN1C(=CC=CC2=[N+](CC)c3ccc4ccccc4c3C2(C)CCCCC2(C)C(C=CC=C3N(CC)c4ccc5ccccc5c4C34CCCCC4)=[N+](CC)c3ccc4ccccc4c32)C2(CCCCC2)c2c1ccc1ccccc21.F[P-](F)(F)(F)(F)F.F[P-](F)(F)(F)(F)F` (stereo not drawn) [Chemical Formula 3]: where the note is “1 × write drive (11.08 Mbps)”, the “14TM: 14TM Signal modulation rate” value is 0.60, the “Jitter: Jitter value” worked out at 7.8 ns, the “PO: Recording power” value is 8.0 mW and the “Ref.: Reflection percentage” value was determined as 58%. Also, under “4 × write drive (44.32 Mbps)”, the “14TM: 14TM Signal modulation rate” value worked out at 0.62, the “Jitter: Jitter value” is on record as 7.1 ns, the “PO: Recording power” value is 14.0 mW and the “Ref.: Reflection percentage” value is given as 57%. For the setting “8 × write drive (88.64 Mbps)”, the “14TM: 14TM Signal modulation rate” value is on record as 0.66, the “Jitter: Jitter value” is listed as 6.8 ns, the “PO: Recording power” value is 22.0 mW and the “Ref.: Reflection percentage” value is given as 58%.
Consider `CCN1C(=CC=CC2=[N+](CC)c3ccc4ccccc4c3C2(C)CCCCCCC2(C)C(C=CC=C3N(CC)c4ccc5ccccc5c4C3(C)C)=[N+](CC)c3ccc4ccccc4c32)C(C)(C)c2c1ccc1ccccc21.F[P-](F)(F)(F)(F)F.F[P-](F)(F)(F)(F)F` (stereo not drawn) [Chemical Formula 8], for which, under “1 × write drive (11.08 Mbps)”, the “14TM: 14TM Signal modulation rate” value was determined as 0.68, the “Jitter: Jitter value” was 7.6 ns, the “PO: Recording power” value is reported as 8.5 mW and the “Ref.: Reflection percentage” value amounted to 70%. For the setting “4 × write drive (44.32 Mbps)”, the “14TM: 14TM Signal modulation rate” value turned out to be 0.70, the “Jitter: Jitter value” amounted to 7.5 ns, the “PO: Recording power” value is on record as 14.5 mW and the “Ref.: Reflection percentage” value is given as 69%. In addition, under “8 × write drive (88.64 Mbps)”, the “14TM: 14TM Signal modulation rate” value is 0.68, the “Jitter: Jitter value” turned out to be 7.5 ns, the “PO: Recording power” value is given as 25.0 mW and the “Ref.: Reflection percentage” value is 70%.
Consider `CCN1C(=CC=CC2=[N+](C)c3ccc4ccccc4c3C2(C)Cc2ccc(CC3(C)C(C=CC=C4N(CC)c5ccc6ccccc6c5C4(C)Cc4ccccc4)=[N+](C)c4ccc5ccccc5c43)cc2)C(C)(Cc2ccccc2)c2c1ccc1ccccc21.F[P-](F)(F)(F)(F)F.F[P-](F)(F)(F)(F)F` (stereo not drawn) [Chemical Formula 36], for which, where the note is “1 × write drive (11.08 Mbps)”, the “14TM: 14TM Signal modulation rate” value turned out to be 0.58, the “Jitter: Jitter value” turned out to be 7.4 ns, the “PO: Recording power” value worked out at 7.0 mW and the “Ref.: Reflection percentage” value turned out to be 53%. Under “4 × write drive (44.32 Mbps)”, the “14TM: 14TM Signal modulation rate” value is given as 0.60, the “Jitter: Jitter value” was determined as 7.0 ns, the “PO: Recording power” value is recorded as 11.0 mW and the “Ref.: Reflection percentage” value was found to be 55%. Moreover, where the note is “8 × write drive (88.64 Mbps)”, the “14TM: 14TM Signal modulation rate” value is recorded as 0.63, the “Jitter: Jitter value” is given as 6.7 ns, the “PO: Recording power” value was 20.0 mW and the “Ref.: Reflection percentage” value amounted to 57%.
As to `CCN1C(=CC=CC2=[N+](CC)c3ccc4ccccc4c3C2(C)C)C(C)(C)c2c1ccc1ccccc21` [Chemical Formula 65, reference compound], where the note is “1 × write drive (11.08 Mbps)”, the “14TM: 14TM Signal modulation rate” value amounted to 0.68, the “Jitter: Jitter value” is 8.0 ns, the “PO: Recording power” value is 12.5 mW and the “Ref.: Reflection percentage” value stood at 72%. Also, under “4 × write drive (44.32 Mbps)”, the “14TM: 14TM Signal modulation rate” value was 0.68, the “Jitter: Jitter value” was 8.3 ns, the “PO: Recording power” value was determined as 24.5 mW and the “Ref.: Reflection percentage” value turned out to be 71%. Further, under “8 × write drive (88.64 Mbps)”, the “14TM: 14TM Signal modulation rate” value is listed as 0.69, the “Jitter: Jitter value” amounted to 8.5 ns, the “PO: Recording power” value was found to be 36.0 mW and the “Ref.: Reflection percentage” value amounted to 71%.
As to `CCN1C(=CC=CC2=[N+](CC)c3ccc4ccccc4c3C2(C)Cc2ccccc2)C(C)(Cc2ccccc2)c2c1ccc1ccccc21` (stereo not drawn) [Chemical Formula 68, reference compound], where the note is “1 × write drive (11.08 Mbps)”, the “14TM: 14TM Signal modulation rate” value is reported as 0.64, the “Jitter: Jitter value” is recorded as 7.8 ns, the “PO: Recording power” value is 10.5 mW and the “Ref.: Reflection percentage” value was found to be 60%. Where the note is “4 × write drive (44.32 Mbps)”, the “14TM: 14TM Signal modulation rate” value came to 0.66, the “Jitter: Jitter value” was 7.6 ns, the “PO: Recording power” value amounted to 16.5 mW and the “Ref.: Reflection percentage” value is reported as 61%. For the setting “8 × write drive (88.64 Mbps)”, the “14TM: 14TM Signal modulation rate” value was found to be 0.70, the “Jitter: Jitter value” came to 7.5 ns, the “PO: Recording power” value stood at 27.0 mW and the “Ref.: Reflection percentage” value is reported as 60%.
